Single values of this set are uncertain.
B1: Rpb7; numbered along this chain (parent)
chain: MFFIKDLSLNITLHPSFFGPRMKQYLKTKLLEEVEGSCTGKFGYILCVLDYDNIDIQRGRILPTDGSAEFNVKYRAVVFKPFKGEVVDGTVVSCSQHGFEVQVGPMKVFVTKHLMPQDLTFNAGSNPPSYQSSEDVITIKSRIRVKIEGCISQVSSIHAIGSIKEDYLGAI

What was measured:
[1] = variants of: B1; test: log2 fold change of mutant abundance, UV-irradiated vs unirradiated; higher = more UV resistant (enriched after UV); conditions: with Saccharomyces cerevisiae rad7Δ rad26Δ; UV dose (J/m2): 10; genetic background: rad7Δ rad26Δ rpb7Δ + plasmid RPB7 library; outgrowth: 10 cell divisions
[2] = variants of: B1; test: NOISeq theta enrichment statistic, UV-irradiated vs unirradiated (dimensionless); higher = more UV resistant (enriched after UV); conditions: with Saccharomyces cerevisiae rad7Δ rad26Δ; UV dose (J/m2): 10; genetic background: rad7Δ rad26Δ rpb7Δ + plasmid RPB7 library; outgrowth: 10 cell divisions

Variant	log2 fold change of mutant abundance [1]	NOISeq theta enrichment statistic [2]
D118N	-0.0963	-0.22
D118Q	0.159	0.0994
D118R	0.0458	0.0467
D118S	0.209	0.189
D118T	-0.0406	-0.028
D118V	-0.102	-0.274
D118Y	-0.13	-0.281
L119C	0.0389	0.0267
L119F	-0.123	-0.76
L119G	0.081	0.0554
L119I	-0.0101	-0.0469
L119K	0.386	0.225
L119M	-0.169	-0.125
L119Q	0.587	0.335
L119R	0.0389	0.0293
L119S	-0.233	-0.424
L119V	-0.0309	-0.0779
L119W	1.15	0.672
L119Y	0.0362	0.0271
T120A	0.0309	0.133
T120D	-0.13	-0.096
T120G	0.358	0.216
T120H	0.0979	0.0827
T120I	0.0535	0.14

Variant	log2 fold change of mutant abundance [1]	NOISeq theta enrichment statistic [2]
T120K	-0.188	-0.127
T120N	0.0178	0.0604
T120P	0.0419	0.0909
T120R	0.414	0.283
T120S	0.00721	0.0407
T120V	0.568	0.252
T120Y	0.00323	0.00271
F121A	0.31	0.212
F121C	-0.0117	-0.0371
F121D	0.0747	0.068
F121G	-0.471	-0.293
F121H	-0.118	-0.063
F121I	-0.0902	-0.343
F121L	-0.0778	-0.405
F121M	-0.0907	-0.0617
F121N	-0.437	-0.327
F121P	1.06	0.608
F121R	0.0321	0.0267
F121S	-0.299	-0.67
F121T	0.155	0.115
F121V	0.0674	0.389
F121Y	0.0266	0.181
N122D	0.164	0.53
N122E	0.224	0.157

Variant	log2 fold change of mutant abundance [1]	NOISeq theta enrichment statistic [2]
N122G	-0.448	-0.208
N122H	-0.0249	-0.032
N122I	-0.186	-0.489
N122K	0.166	0.768
N122M	-0.0728	-0.0368
N122Q	0.83	0.43
N122R	0.486	0.376
N122S	-0.253	-0.786
N122T	0.0449	0.0619
N122Y	0.0305	0.095
A123C	0.213	0.185
A123D	0.0996	0.0993
A123E	0.126	0.878
A123G	-0.07	-0.118
A123K	0.0667	0.0502
A123P	-0.0275	-0.0411
A123Q	0.353	0.173
A123R	-0.121	-0.0781
A123S	0.0688	0.215
A123T	-0.00286	-0.00834
A123V	-0.196	-0.573
A123W	-0.0975	-0.0647
G124A	0.116	0.228
G124C	0.142	0.631

Variant	log2 fold change of mutant abundance [1]	NOISeq theta enrichment statistic [2]
G124D	0.737	1.8
G124E	0.131	0.0999
G124F	-0.463	-0.27
G124N	0.445	0.3
G124R	0.647	1.1
G124S	0.212	0.613
G124T	0.135	0.0856
G124V	0.0643	0.124
G124W	0.186	0.139
G124Y	-0.582	-0.384
S125A	0.064	0.13
S125C	0.424	0.306
S125E	0.118	0.079
S125F	0.0142	0.0157
S125I	-0.759	-0.428
S125K	-0.148	-0.0804
S125L	-0.0511	-0.124
S125P	-0.117	-0.373
S125Q	-0.262	-0.212
S125T	0.114	0.614
S125V	0.0916	0.0464
S125Y	0.0821	0.0877
N126A	0.035	0.0178
N126C	-0.574	-0.302

Variant	log2 fold change of mutant abundance [1]	NOISeq theta enrichment statistic [2]
N126D	0.565	1.48
N126E	0.254	0.188
N126G	0.401	0.204
N126H	-0.097	-0.185
N126I	-0.0173	-0.0649
N126K	0.117	0.346
N126Q	-0.0586	-0.0522
N126R	-0.276	-0.19
N126S	0.027	0.0893
N126T	0.0698	0.177
N126V	-0.419	-0.213
N126Y	-0.442	-1.46
P127A	0.259	0.29
P127E	0.346	0.26
P127H	-0.341	-0.293
P127I	0.223	0.0881
P127K	0.238	0.189
P127L	-0.104	-0.22
P127Q	-0.0222	-0.074
P127R	-0.0672	-0.104

Whole records from above.
P127L is entered as log2 fold change of mutant abundance [1]: -0.104; NOISeq theta enrichment statistic [2]: -0.22
N126T is entered as log2 fold change of mutant abundance [1]: 0.0698; NOISeq theta enrichment statistic [2]: 0.177
P127R is entered as log2 fold change of mutant abundance [1]: -0.0672; NOISeq theta enrichment statistic [2]: -0.104
N126G is entered as log2 fold change of mutant abundance [1]: 0.401; NOISeq theta enrichment statistic [2]: 0.204
